From patent US5965539A, “Inhibitors of prenyl transferases” (Univeristy of Pittsburgh, priority 1996, dated 1999) come the findings set out here.

Molecules are shown by their SMILES. A number of entries come with more than one value. The list is limited to them. The source may hold further records. Results that share an entry differ, and nothing given here explains why; some may be repeats, others may stem from another dose, organism or construct than stated.

For this assay, the system named is oncogenic H-Ras activation of MAPK. Briefly: Oncogenic H-Ras activation of MAP kinase, immunoblot. The class given is cell-based. The note with it: tested form: HCl. Here is the method:
Cells were treated with FTI-277, GGTI-286, or vehicle and lysed as previously described for Ras and Rap1A processing. Equal amounts of protein were separated on a 15% SDS-PAGE, transferred to nitrocellulose, and immunoblotted using an anti-MAP kinase antibody (erk2, monoclonal, UB1, Lake Placid, N.Y.). Antibody reactions were visualized using peroxidase-conjugated donkey anti-mouse IgG (Jackson ImmunoResearch Laboratories Inc., West Grove, Pa.) and an enhanced chemiluminescence detection system (ECL, Amersham Corp.)
For orientation: In western blotting, separated proteins are transferred to a membrane and probed.

With `COC(=O)[C@H](CCSC)NC(=O)c1ccc(NC[C@@H](N)CS)cc1-c1ccccc1` [FTI-277, 4-N-[2(R)-Amino-3-mercaptopropyl]amino-2-phenylbenzoyl methionine methyl ester], the “concentration of complete block of oncogenic H-Ras activation of MAPK” value was 1 μM and 3 μM.
